In assay [1] the target is HSI2-LIKE1 (HSL1), BiFC fusion (Arabidopsis thaliana) (UniProt Q5CCK4). Put plainly: split reporter.
Assay [2] addresses T1, HSI2, yeast two-hybrid fusion (Arabidopsis thaliana) (UniProt Q8W4L5).
T1 sequence: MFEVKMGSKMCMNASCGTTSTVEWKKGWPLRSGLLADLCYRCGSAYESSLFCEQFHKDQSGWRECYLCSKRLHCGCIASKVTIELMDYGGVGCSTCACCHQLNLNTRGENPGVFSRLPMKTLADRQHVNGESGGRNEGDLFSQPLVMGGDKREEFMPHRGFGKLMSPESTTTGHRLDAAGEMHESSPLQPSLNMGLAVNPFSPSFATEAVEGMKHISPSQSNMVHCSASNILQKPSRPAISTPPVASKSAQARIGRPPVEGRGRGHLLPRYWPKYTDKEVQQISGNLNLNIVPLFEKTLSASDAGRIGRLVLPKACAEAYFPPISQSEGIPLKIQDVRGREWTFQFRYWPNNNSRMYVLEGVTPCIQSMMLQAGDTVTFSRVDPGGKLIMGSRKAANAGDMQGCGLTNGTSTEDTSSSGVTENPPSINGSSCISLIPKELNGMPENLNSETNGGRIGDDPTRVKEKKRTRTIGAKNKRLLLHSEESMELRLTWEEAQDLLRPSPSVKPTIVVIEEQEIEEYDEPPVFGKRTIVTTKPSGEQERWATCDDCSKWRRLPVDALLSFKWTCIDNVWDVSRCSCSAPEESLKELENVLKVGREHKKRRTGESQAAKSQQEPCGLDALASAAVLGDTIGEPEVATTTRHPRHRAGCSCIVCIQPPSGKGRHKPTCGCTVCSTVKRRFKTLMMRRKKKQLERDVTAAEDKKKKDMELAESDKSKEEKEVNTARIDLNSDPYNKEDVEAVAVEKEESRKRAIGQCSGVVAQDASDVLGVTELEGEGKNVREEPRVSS
As to the kind of experiment: two-hybrid.

By UniProt entry, the sequences of proteins in these tests, tags left out.
UniProt Q5CCK4: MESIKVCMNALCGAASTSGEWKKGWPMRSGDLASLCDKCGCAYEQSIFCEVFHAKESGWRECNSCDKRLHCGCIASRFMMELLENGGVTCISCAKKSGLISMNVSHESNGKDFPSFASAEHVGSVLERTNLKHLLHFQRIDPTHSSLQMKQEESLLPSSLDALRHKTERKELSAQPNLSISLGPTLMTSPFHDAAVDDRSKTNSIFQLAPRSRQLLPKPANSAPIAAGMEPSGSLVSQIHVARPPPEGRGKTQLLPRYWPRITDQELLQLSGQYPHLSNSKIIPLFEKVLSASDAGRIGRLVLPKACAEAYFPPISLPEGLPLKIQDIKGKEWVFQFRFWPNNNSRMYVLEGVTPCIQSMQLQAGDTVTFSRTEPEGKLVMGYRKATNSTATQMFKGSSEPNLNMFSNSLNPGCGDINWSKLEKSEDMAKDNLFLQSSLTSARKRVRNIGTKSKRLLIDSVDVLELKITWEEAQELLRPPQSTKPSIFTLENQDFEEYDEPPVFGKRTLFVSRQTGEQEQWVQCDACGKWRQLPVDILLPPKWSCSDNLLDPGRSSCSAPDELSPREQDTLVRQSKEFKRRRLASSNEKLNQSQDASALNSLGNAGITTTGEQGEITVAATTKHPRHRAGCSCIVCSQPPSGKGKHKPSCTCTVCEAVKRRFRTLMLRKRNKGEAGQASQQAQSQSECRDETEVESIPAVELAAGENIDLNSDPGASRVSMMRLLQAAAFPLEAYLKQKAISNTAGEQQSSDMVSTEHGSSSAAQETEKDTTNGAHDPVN

Assay [3] addresses HSL1, yeast two-hybrid fusion (Arabidopsis thaliana) (UniProt Q5CCK4). As to the kind of experiment: two-hybrid.
Assay [4] concerns the target T2, HIGH-LEVEL EXPRESSION OF SUGAR INDUCIBLE2 (HSI2), BiFC fusion (Arabidopsis thaliana) (UniProt Q8W4L5).
T2 sequence: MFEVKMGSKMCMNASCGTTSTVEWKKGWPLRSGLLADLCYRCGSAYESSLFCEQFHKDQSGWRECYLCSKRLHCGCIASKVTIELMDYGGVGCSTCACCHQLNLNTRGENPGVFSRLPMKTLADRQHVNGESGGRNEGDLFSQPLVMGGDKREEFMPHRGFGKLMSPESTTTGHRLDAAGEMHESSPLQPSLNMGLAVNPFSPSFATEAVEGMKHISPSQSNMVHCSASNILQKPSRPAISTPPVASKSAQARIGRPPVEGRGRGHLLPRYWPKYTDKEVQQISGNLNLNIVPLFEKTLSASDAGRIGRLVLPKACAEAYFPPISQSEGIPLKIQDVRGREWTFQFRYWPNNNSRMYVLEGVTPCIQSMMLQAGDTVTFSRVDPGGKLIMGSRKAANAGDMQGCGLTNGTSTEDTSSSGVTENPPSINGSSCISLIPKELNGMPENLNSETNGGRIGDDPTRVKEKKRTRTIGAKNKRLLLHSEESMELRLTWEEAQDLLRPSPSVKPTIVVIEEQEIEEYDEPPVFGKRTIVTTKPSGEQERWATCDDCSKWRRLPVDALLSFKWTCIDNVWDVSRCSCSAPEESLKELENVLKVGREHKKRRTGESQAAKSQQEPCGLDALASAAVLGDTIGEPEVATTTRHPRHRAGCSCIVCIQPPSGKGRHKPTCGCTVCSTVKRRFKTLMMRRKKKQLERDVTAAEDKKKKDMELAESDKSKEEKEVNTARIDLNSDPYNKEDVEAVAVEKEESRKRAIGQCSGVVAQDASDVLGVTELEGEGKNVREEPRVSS
As to the kind of experiment: split reporter.

The target in assay [5] is T3, HSI2-GFP, for co-immunoprecipitation (Arabidopsis thaliana) (UniProt Q8W4L5).
T3 sequence: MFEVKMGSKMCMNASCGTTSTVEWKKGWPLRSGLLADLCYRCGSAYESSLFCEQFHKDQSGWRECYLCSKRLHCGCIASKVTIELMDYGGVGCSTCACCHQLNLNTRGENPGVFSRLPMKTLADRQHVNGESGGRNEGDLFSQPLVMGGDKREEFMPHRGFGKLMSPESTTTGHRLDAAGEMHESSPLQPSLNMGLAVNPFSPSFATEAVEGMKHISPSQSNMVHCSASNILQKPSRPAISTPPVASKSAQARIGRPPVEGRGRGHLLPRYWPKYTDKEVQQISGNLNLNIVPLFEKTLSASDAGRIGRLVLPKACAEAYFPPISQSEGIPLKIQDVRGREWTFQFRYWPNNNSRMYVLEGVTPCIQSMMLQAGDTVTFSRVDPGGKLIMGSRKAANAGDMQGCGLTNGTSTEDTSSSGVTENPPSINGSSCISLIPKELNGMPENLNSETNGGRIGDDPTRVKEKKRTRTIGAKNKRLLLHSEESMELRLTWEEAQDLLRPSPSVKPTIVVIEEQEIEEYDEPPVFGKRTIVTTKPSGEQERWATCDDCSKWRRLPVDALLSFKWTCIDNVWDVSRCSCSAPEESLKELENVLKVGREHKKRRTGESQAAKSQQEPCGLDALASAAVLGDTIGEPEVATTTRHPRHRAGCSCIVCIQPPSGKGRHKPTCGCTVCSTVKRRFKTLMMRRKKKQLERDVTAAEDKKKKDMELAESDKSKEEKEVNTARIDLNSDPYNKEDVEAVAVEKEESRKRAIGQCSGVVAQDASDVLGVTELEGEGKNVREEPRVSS
As to the kind of experiment: co-IP.

In assay [6] the target is HSL1-GFP, for co-immunoprecipitation (Arabidopsis thaliana) (UniProt Q5CCK4). As to the kind of experiment: co-IP.

These are yes or no findings as the source states them, for the method shown. For some of these results: Binding seen in cells or lysates may run through a third protein. Some binding calls cover weakened binding; strength is not graded here. For some of these results: Tags and fused reporters may be left off the sequences shown.

4 molecules from paper doi:10.1101/2019.12.20.885392 can be followed below.

For “HSI2-LIKE1 (HSL1), BiFC fusion (from UniProt Q5CCK4 1-780)”, the binding result in assay [1] was “binds”.
Take “HSI2mPHD, yeast two-hybrid fusion (from UniProt Q8W4L5 1-790)”: the binding result in assay [2] and in assay [3] was “no binding” throughout.

B1: LIKE HETEROCHROMATIN PROTEIN1 (LHP1), BiFC fusion (protein, UniProt Q946J8 1-445)
chain: MKGASGAVKKKPQVLNEAGEAETAVETVGESRKISGDGGFGSDDGGGGGGGGSGESILREIGDDRPTEDGDEEEEEDEDEDDGGDEEDEEGEGEGGQEERPKLDEGFYEIEAIRRKRVRKGKVQYLIKWRGWPETANTWEPLENLQSIADVIDAFEGSLKPGKPGRKRKRKYAGPHSQMKKKQRLTSTSHDATEKSDSSTSLNNSSLPDIPDPLDLSGSSLLNRDVEAKNAYVSNQVEANSGSVGMARQVRLIDNEKEYDPTLNELRGPVNNSNGAGCSQGGGIGSEGDNVRPNGLLKVYPKELDKNSRFIGAKRRKSGSVKRFKQDGSTSNNHTAPTDQNLTPDLTTLDSFGRIARMGNEYPGVMENCNLSQKTKIEELDITKILKPMSFTASVSDNVQEVLVTFLALRSDGKEALVDNRFLKAHNPHLLIEFYEQHLKYNRTP
For the molecule B1, the binding result in assay [4] and in assay [1] was “binds” in each case.

B2: LHP1-myc, for co-immunoprecipitation (protein, UniProt Q946J8 1-445)
chain: MKGASGAVKKKPQVLNEAGEAETAVETVGESRKISGDGGFGSDDGGGGGGGGSGESILREIGDDRPTEDGDEEEEEDEDEDDGGDEEDEEGEGEGGQEERPKLDEGFYEIEAIRRKRVRKGKVQYLIKWRGWPETANTWEPLENLQSIADVIDAFEGSLKPGKPGRKRKRKYAGPHSQMKKKQRLTSTSHDATEKSDSSTSLNNSSLPDIPDPLDLSGSSLLNRDVEAKNAYVSNQVEANSGSVGMARQVRLIDNEKEYDPTLNELRGPVNNSNGAGCSQGGGIGSEGDNVRPNGLLKVYPKELDKNSRFIGAKRRKSGSVKRFKQDGSTSNNHTAPTDQNLTPDLTTLDSFGRIARMGNEYPGVMENCNLSQKTKIEELDITKILKPMSFTASVSDNVQEVLVTFLALRSDGKEALVDNRFLKAHNPHLLIEFYEQHLKYNRTP
Take B2: the binding entry in assay [5] and in assay [6] was “binds” each time.
